# Results are given in words; binding and its absence hold for the method and conditions named. Binding seen in cells or lysates may run through a third protein. A yes stands for co-enrichment or nearness to the bait. Other partners may have been found.
# Sequences of proteins named here, by UniProt entry; tags and fusion partners are left off.
# UniProt Q91V45: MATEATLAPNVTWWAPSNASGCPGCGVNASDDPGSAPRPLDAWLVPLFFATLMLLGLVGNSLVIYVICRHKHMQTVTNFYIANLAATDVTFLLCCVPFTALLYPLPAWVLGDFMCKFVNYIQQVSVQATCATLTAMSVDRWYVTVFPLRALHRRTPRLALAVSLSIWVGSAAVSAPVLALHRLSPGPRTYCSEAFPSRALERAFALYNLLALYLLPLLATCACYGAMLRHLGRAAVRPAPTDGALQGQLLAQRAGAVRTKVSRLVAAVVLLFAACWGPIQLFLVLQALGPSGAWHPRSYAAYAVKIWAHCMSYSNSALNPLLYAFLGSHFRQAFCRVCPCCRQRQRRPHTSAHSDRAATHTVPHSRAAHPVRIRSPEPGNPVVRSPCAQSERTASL
# UniProt P62137: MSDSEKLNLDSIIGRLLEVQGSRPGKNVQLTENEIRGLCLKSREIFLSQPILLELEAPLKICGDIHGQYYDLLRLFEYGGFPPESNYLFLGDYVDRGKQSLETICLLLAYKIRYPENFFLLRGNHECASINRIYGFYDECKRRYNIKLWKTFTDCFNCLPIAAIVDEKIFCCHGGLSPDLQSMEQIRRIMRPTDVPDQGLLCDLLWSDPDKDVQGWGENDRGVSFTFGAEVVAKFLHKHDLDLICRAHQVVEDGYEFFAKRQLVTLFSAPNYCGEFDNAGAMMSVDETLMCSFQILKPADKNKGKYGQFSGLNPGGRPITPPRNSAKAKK
# UniProt P29351: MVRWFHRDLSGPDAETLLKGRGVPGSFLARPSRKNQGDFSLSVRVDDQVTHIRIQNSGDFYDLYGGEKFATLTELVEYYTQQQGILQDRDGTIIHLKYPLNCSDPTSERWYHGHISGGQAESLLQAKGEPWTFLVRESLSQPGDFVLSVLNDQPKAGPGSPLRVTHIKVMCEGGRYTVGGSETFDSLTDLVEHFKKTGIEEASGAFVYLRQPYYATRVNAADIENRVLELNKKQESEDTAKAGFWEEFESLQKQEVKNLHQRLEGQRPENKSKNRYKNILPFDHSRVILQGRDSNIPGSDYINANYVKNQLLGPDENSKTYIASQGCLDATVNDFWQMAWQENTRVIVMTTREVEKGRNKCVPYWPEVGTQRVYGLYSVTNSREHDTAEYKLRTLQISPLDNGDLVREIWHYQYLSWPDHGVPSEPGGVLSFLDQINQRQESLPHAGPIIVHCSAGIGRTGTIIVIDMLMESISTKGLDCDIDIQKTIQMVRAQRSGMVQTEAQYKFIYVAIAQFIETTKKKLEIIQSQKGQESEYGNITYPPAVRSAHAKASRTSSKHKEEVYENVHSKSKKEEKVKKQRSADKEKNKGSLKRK
# Biological target: Gpr54 (endogenous, mouse) (mouse (endogenous in RAW264.7)) (UniProt Q91V45)
# Experiment: affinity purification with mass spectrometry; anti-Gpr54 IP from RAW264.7 whole-cell lysates with or without Kp-10 for 20 min, on-bead digestion, Q-Exactive, label-free quantification
row,binding,Molecule
1,binds,"PPP1CA (endogenous, mouse) (from UniProt P62137 1-330) (enzyme)"
2,binds,"PTPN6 (endogenous, mouse) (from UniProt P29351 1-595) (enzyme)"
3,binds,"Dusp18 (endogenous, mouse) (enzyme, UniProt Q8VE01 1-188) MTSPWSAFPVQIPQPSIRGLSQITKSLFISNGVAANNKLLLSSNQITTVINVSVEVANTFYEDIQYVQVPVVDAPVARLSNFFDSVADRIHSVEMQKGRTLLHCAAGVSRSAALCLAYLMKYHAMSLVDAHTWTKSCRPIIRPNSGFWEQLIHYELQLFGKNTMQMMDSPMGRIPDIYEKETRLMIPL"
